Values of other authors, collected in PMC4077236 (Neurochemistry International, 2014).

Conditions: oral administration of 50 mg levamisole; on average; ref Gwilt et al., 2000; cited from earlier work

## c1ccc([C@H]2CN3CCSC3=N2)cc1 [levamisole]
  peak plasma concentrations (cmax): 368 µg/L
